Data: patent US7109380B2, “Cyclopentenedione antifungal compounds and methods for their use” (The University of Mississippi, priority 2004, dated 2006)
At least one structure is not confirmed: it was looked up by name or label, or the drawing left a doubt.

Tested on: Phomopsis viticola
Test: 96-well microtiter fungal growth assay;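 further: percent relative to untreated positive growth controls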
Assay type: cell-based
Conditions: 3.0 μm, 144 hrs
Text: Pathogen collection. Isolates of Colletotrichum acutatum Simmonds, Colletotrichum fragariae Brooks, and Colletotrichum gloeosporioides (Penz.) Penz. & Sacc. in Penz. were obtained from B. J. Smith, USDA, ARS, Small Fruit Research Station, Poplarville, Mass. Colletotrichum fragariae (isolate CF63), C. acutatum (isolate CAGoff), and C. gloeosporioides (isolate CG162) were used for all pathogen and bioautography studies. Isolate CF63 is one of the most virulent isolates at infecting strawberry plants and inducing both crown and fruit rot (Smith and Black, 1990). CF63, CAGoff, and CG162 were used as standard test isolates because of our extensive knowledge of these isolates and their known fungicide sensitivity profiles in both bioautography and microtiter formats. […]
Inoculum preparation. […] Conidia concentrations were determined photometrically, from a standard curve based on the absorbance at 625 nm and suspensions were then adjusted with sterile distilled water to a concentration of 1.0×10^6 conidia/mL.
Microtiter assay. […] Growth was then evaluated by measuring absorbance of each well at 620 nm using a microplate photometer (Packard Spectra Count, Packard Instrument Co., Downers Grove, Ill.).
Microbioassay Experimental Design. […] Each chemical is evaluated in duplicate at each dose (0.3, 3.0 and 30.0 μM) and repeated twice in time. […] Each dose level and response time is analyzed separately. […]

CO/C=C(/C(=O)OC)c1ccccc1Oc1cc(Oc2ccccc2C#N)ncn1 [Azoxystrobin]
Mean percent fungal growth inhibition of Phomopsis viticola: −83.2.5 ± 16.7%
